We go through two molecules from paper PMC8586336.

Protein sequences, listed by entry. Tags and fused reporters are not part of them.
UniProt Q96SW2: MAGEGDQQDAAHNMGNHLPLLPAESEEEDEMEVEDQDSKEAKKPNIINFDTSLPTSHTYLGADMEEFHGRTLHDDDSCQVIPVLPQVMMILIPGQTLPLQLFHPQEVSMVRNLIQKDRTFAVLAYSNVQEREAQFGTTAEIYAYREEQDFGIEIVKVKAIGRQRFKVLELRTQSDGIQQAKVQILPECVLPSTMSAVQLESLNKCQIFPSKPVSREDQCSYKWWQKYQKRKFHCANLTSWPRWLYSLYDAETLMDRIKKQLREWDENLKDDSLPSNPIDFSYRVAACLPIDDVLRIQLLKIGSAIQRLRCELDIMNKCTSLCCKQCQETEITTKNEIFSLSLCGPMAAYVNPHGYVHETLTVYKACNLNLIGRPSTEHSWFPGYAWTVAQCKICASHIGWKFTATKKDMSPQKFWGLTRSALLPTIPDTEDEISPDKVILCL

The assay concerns the target FLAG-HA (FH)-tagged human CRBN (human) (UniProt Q96SW2). The assay is described as follows: co-IP; FH-CRBN and the tagged PLZF protein expressed in 293T; extracts in 1% Triton lysis buffer incubated 12 h with or without pomalidomide; anti-HA beads; immunoblot. A general note: In western blotting, separated proteins are transferred to a membrane and probed.

These are yes or no findings as the source states them, for the method shown. Binding seen in cells or lysates may run through a third protein. Sequences can lack the tags named with a protein.

B1: PLZF^G410/438/467A (Myc-FLAG tagged) (protein, UniProt Q05516 1-673)
chain: MDLTKMGMIQLQNPSHPTGLLCKANQMRLAGTLCDVVIMVDSQEFHAHRTVLACTSKMFEILFHRNSQHYTLDFLSPKTFQQILEYAYTATLQAKAEDLDDLLYAAEILEIEYLEEQCLKMLETIQASDDNDTEATMADGGAEEEEDRKARYLKNIFISKHSSEESGYASVAGQSLPGPMVDQSPSVSTSFGLSAMSPTKAAVDSLMTIGQSLLQGTLQPPAGPEEPTLAGGGRHPGVAEVKTEMMQVDEVPSQDSPGAAESSISGGMGDKVEERGKEGPGTPTRSSVITSARELHYGREESAEQVPPPAEAGQAPTGRPEHPAPPPEKHLGIYSVLPNHKADAVLSMPSSVTSGLHVQPALAVSMDFSTYGGLLPQGFIQRELFSKLGELAVGMKSESRTIGEQCSVCAVELPDNEAVEQHRKLHSGMKTYGCELCAKRFLDSLRLRMHLLAHSAGAKAFVCDQCAAQFSKEDALETHRQTHTGTDMAVFCLLCGKRFQAQSALQQHMEVHAGVRSYICSECNRTFPSHTALKRHLRSHTGDHPYECEFCGSCFRDESTLKSHKRIHTGEKPYECNGCGKKFSLKHQLETHYRVHTGEKPFECKLCHQRSRDYSAMIKHLRTHNGASPYQCTICTEYCPSLSSMQKHMKGHKPEEIPPDWRIEKTYLYLCYV
As to B1, the binding result is given as “no binding”.

B2: PLZF^G410/467A (Myc-FLAG tagged) (protein, UniProt Q05516 1-673)
chain: MDLTKMGMIQLQNPSHPTGLLCKANQMRLAGTLCDVVIMVDSQEFHAHRTVLACTSKMFEILFHRNSQHYTLDFLSPKTFQQILEYAYTATLQAKAEDLDDLLYAAEILEIEYLEEQCLKMLETIQASDDNDTEATMADGGAEEEEDRKARYLKNIFISKHSSEESGYASVAGQSLPGPMVDQSPSVSTSFGLSAMSPTKAAVDSLMTIGQSLLQGTLQPPAGPEEPTLAGGGRHPGVAEVKTEMMQVDEVPSQDSPGAAESSISGGMGDKVEERGKEGPGTPTRSSVITSARELHYGREESAEQVPPPAEAGQAPTGRPEHPAPPPEKHLGIYSVLPNHKADAVLSMPSSVTSGLHVQPALAVSMDFSTYGGLLPQGFIQRELFSKLGELAVGMKSESRTIGEQCSVCAVELPDNEAVEQHRKLHSGMKTYGCELCGKRFLDSLRLRMHLLAHSAGAKAFVCDQCAAQFSKEDALETHRQTHTGTDMAVFCLLCGKRFQAQSALQQHMEVHAGVRSYICSECNRTFPSHTALKRHLRSHTGDHPYECEFCGSCFRDESTLKSHKRIHTGEKPYECNGCGKKFSLKHQLETHYRVHTGEKPFECKLCHQRSRDYSAMIKHLRTHNGASPYQCTICTEYCPSLSSMQKHMKGHKPEEIPPDWRIEKTYLYLCYV
As for B2, the binding result was “no binding”.
